Data on 1 molecule can be found in US20230167162A1 (TAMPERE UNIVERSITY FOUNDATION SR, published 2023).

The assay has as its target T1, His-tagged neuropilin-1 b1b2 domain (NRP-1 WT) (UniProt O14786 273-586, limits assumed, FAM (5-(and-6)-carboxyfluorescein) label, amine-reactive dye).
T1 construct: domain: b1b2 domain; also called WT NRP-1; wild type NRP-1; not shown: His-tag
T1 sequence (looked up): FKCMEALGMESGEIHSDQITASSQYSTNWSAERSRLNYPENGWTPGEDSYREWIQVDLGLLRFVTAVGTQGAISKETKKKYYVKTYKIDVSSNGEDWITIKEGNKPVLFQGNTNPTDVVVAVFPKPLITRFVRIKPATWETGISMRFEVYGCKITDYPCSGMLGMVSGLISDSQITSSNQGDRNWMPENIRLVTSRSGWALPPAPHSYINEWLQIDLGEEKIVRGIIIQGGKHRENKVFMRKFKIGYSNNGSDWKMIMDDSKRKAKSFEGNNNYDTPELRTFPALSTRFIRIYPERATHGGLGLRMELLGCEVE
Put plainly: ELISA: immobilised peptide (10 µg/well), FAM-labelled NRP-1, fluorescence intensity. The method, then: In vitro binding of DCN-tCRK and peptides to NRP-1 was analyzed using ELISA analysis. 96-well, black FLUOTRAC™ 600, high binding plates (Greiner Bio-One, Kremsmünster, Austria) were coated with […] of 100 μg/ml DCN-tCRK in PBS at 4° C. overnight. 10 μg/well RPARPAR (SEQ ID NO: 25) and […] (SEQ ID NO: 26) peptides were coated in parallel as a positive and negative control, respectively. BSA was used as an immobilization control. The plates were washed 3 times with phosphate buffered saline (PBS) and blocked for 1 h at 37° C. with 300 μl of blocking solution (1×PBS, 1% BSA, 0.1% Tween-20). His-tagged neuropilin-1 b1b2 domain (NRP-1 WT) and triple mutant NS346A-E348A-T349A neuropilin-1 b1b2 domain (NRP-1 mutant) were expressed and purified at the Protein Production and Analysis Facility at the Sanford Burnham Prebys Medical Discovery Institute (La Jolla, Calif.) as described previously (Teesalu et al., 2009, PNAS 106:16157-16162). The recombinant proteins NRP1 WT, NRP1 mutant, and DCN-tCRK were FAM (5-(and-6)-Carboxyfluorescein, #90024, Biotium Inc, CA, USA) labeled by mixing 1:10 ratio of amine-reactive FAM dye (diluted in DMSO final concentration 0.2%) and protein. […] After adding 100 μl PBS in each well, the plate was immediately read with top read mode using a fluorescence reader (Flex Station II, Molecular Devices; peak excitation=485 nm, peak emission=530 nm, cut off=515).

No constants are given. Whether binding was seen depends on the method and setting. Some entries that bind do so weakly or less than the wild type. Where a sequence is shown, tags or fusion partners need not be part of it.

As to RPARPAR [RPARPAR peptide], the binding result is reported as “binds”.
